Results: paper PMC12120064
No constants are given. Whether binding was seen depends on the method and setting. In cells and extracts the contact can be indirect.

Sequences of proteins named here, by UniProt entry; tags and fusion partners are left off. A change or cut given only in a name is not applied to a line headed by its entry.
UniProt P13688: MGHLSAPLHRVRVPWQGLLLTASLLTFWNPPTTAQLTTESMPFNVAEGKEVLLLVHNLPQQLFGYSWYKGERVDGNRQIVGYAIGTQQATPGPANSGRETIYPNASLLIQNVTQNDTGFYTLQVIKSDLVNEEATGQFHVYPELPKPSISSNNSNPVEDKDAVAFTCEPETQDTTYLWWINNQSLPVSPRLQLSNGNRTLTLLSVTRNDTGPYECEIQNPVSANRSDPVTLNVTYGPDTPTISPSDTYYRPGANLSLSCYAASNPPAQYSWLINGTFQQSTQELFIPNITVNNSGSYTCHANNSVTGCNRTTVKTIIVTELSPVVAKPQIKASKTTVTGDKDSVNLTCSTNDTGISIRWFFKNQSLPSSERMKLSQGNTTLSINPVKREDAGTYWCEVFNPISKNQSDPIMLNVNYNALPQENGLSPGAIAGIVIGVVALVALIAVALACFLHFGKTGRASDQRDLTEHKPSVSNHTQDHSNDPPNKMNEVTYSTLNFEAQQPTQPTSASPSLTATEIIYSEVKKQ
UniProt P21333: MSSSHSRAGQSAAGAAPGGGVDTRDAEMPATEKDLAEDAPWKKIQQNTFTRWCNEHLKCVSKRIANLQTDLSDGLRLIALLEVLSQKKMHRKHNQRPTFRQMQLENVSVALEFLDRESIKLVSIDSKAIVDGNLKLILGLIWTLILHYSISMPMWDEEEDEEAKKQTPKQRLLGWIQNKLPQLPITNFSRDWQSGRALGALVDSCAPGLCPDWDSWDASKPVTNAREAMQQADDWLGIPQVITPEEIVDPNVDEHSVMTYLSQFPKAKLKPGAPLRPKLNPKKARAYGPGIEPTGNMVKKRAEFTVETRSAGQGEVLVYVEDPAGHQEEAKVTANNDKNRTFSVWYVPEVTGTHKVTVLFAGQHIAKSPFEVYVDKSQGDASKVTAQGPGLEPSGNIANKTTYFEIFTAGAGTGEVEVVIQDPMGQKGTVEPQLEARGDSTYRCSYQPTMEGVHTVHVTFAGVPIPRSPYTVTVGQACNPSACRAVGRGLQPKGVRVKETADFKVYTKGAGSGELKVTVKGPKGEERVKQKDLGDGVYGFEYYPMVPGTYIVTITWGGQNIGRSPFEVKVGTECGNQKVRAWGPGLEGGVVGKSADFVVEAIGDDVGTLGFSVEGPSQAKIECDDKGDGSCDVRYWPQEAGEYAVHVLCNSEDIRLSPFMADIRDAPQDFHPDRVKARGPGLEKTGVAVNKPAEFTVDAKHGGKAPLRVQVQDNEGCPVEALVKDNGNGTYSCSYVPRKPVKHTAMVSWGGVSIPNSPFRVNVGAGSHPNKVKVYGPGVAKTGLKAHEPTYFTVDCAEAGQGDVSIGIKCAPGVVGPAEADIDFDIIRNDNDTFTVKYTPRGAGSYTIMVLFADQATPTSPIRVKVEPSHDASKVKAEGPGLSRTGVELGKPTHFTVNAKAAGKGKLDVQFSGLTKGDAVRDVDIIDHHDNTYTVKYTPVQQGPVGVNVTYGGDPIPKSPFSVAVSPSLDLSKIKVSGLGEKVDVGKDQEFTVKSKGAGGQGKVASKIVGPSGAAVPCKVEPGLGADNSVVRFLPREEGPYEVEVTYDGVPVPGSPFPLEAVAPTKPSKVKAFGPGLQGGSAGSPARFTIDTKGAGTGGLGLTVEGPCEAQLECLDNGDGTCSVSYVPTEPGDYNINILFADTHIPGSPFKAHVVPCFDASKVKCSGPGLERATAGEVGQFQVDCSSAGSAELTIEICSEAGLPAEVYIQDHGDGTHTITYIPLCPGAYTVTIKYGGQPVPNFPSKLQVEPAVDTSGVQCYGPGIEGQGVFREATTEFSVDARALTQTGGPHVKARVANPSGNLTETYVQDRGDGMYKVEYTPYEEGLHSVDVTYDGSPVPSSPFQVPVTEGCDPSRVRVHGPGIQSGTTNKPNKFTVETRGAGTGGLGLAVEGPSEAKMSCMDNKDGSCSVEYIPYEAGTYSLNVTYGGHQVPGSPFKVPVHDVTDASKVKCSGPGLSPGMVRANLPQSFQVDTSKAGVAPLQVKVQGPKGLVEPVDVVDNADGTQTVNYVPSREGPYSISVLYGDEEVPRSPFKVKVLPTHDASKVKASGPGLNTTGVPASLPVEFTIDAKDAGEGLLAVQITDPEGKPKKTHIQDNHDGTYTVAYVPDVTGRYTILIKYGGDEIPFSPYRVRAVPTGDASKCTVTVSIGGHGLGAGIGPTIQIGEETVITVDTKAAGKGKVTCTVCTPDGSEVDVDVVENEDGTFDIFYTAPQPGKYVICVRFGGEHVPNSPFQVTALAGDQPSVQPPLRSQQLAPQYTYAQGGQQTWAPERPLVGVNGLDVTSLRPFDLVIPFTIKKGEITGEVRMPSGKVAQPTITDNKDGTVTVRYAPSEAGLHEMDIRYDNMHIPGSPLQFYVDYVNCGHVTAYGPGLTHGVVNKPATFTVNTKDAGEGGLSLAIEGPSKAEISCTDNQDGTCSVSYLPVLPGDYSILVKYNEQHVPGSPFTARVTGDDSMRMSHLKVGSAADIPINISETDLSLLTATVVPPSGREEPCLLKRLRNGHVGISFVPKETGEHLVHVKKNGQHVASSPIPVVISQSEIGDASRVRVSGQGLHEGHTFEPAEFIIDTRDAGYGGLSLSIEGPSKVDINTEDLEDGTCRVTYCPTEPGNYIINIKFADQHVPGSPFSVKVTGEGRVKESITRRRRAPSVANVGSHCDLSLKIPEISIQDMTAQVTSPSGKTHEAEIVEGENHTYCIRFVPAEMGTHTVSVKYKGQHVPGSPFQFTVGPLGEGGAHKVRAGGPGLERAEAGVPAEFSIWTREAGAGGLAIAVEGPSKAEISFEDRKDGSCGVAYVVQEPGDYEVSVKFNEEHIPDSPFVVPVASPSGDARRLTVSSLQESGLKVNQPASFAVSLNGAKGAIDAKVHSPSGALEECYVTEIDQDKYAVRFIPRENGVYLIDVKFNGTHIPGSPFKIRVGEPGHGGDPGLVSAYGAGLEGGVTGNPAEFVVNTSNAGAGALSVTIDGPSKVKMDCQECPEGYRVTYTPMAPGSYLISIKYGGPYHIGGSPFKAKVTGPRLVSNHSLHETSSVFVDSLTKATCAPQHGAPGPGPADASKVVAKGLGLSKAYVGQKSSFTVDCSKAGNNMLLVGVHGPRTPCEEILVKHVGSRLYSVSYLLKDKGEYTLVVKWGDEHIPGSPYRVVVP

Target: N-domain deleted (ΔN) CEACAM1 (UniProt P13688)
Test: co-IP; CEACAM1-knockout JEKO-1 cells reconstituted with 4L, Y493F/Y520F or ΔN CEACAM1, stimulated with 2 μg/ml anti-IgM for the indicated times; CEACAM1 immunoprecipitated, immunoblot; IP buffer 50 mM Tris-HCl, 150 mM NaCl, 1% Triton X-100, 2 mM EDTA

Substance: filamin A (FLNA) (from UniProt P21333 1-2647)
- binding: no binding
